Data: patent publication US20170216315A1 (priority 2016, published 2017)

Assays:
[1] = Change of mice body weight; type: in vivo; conditions: FIG. 1
[2] = Feed intake, relative weight of organs and of fat pads; type: in vivo, mice; conditions: for Feed intake: Lieber-DeCarli alcoholic liquid diet
Method: C-1. The feed intakes of mice were recorded every day (4 mice from each group were randomly picked for recording, and an average of the 4 mice was taken). The changes in the mice body weight were recorded at the last day of every week (i.e., an average of 8 mice from each group), over a four-week period.
C-4. After “C-3” was completed, the mice were sacrificed. The weights of the mice hearts, livers, kidneys, spleens, and abdominal and epididymal fat pads were measured and recorded; the mice livers were washed with sterilized saline, and then the liver appearances were recorded by a camera. The collected organs and feces were stored at −80° C. for the following analysis (recording, sample collection and storage were conducted for all of the 8 mice from each group).
The average values of daily feed intakes of mice of each group recorded in [Preparation Examples] Besides, the weights of mice organ and fat of each group obtained from [Preparation Examples] C-4 were averaged, respectively, and then the average weights (g) were divided by the average body weights of mice in week 4 from the corresponding group to obtain the relative weights of organs and the relative weights of fat.

Question: With `CC(C)[C@@H](C)/C=C/[C@@H](C)[C@H]1CC[C@H]2C3=CCC4C[C@@H](O)CC[C@]4(C)C3=CC[C@]12C` (stereo partly drawn) [EK100] as the molecule, how does the “Body weight, difference between groups” value ([1]; week 1, all groups incl. EK100 1, 5, 10 mg/kg/day, p>0.05) read?
Answer: did not show any significant differences

Question: And the “Body weight compared to control” value ([1]; week 2 and week 4, EK100 1, 5, 10 mg/kg/day + alcoholic diet vs control (normal liquid diet), p<0.05)?
Answer: significantly lower

Question: What about the “Feed intake compared to control” value ([2]; EK100 1, 5, 10 mg/kg/day + alcoholic diet vs control, p<0.05) of the same molecule?
Answer: significantly lower

Question: What about the Feed intake ([2]; EK100_1X: 1 mg/kg-body weight/day gavage) of the same molecule?
Answer: 6.57 ± 0.10^c g/each mouse/day

Question: And the Feed intake ([2]; EK100_5X: 5 mg/kg-body weight/day gavage)?
Answer: 7.09 ± 0.04^b g/each mouse/day

Question: And the Feed intake ([2]; EK100_10X: 10 mg/kg-body weight/day gavage)?
Answer: 6.72 ± 0.21^c g/each mouse/day

Marks after values point to notes of the source that are not given here.
